Measured values from the supplement of paper PMC10060354, “Discovery of a small molecule ligand of FRS2 that inhibits invasion and tumor growth” (Cellular Oncology, 2022).

By UniProt entry, the sequences of proteins in these tests, tags left out. Where a name states a change or a piece, a line headed by the entry shows the natural chain unless it says otherwise.
UniProt Q9Y6X4: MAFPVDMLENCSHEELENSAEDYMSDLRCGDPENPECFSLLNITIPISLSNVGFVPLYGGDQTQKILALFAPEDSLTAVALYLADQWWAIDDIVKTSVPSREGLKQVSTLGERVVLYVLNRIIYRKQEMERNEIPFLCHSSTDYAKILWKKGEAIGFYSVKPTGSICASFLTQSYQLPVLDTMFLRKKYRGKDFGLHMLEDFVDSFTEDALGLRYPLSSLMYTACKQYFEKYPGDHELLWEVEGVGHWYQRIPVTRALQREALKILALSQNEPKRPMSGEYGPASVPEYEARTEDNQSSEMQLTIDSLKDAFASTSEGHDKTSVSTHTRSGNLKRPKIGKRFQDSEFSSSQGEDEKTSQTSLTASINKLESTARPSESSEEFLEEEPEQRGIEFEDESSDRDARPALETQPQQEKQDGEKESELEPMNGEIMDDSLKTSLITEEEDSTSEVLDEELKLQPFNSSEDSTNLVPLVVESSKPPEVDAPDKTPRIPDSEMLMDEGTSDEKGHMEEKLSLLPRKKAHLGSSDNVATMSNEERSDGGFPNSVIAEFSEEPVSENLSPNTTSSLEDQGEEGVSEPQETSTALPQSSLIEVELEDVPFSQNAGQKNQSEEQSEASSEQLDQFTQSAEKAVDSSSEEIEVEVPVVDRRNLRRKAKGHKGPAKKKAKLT
UniProt Q9H501: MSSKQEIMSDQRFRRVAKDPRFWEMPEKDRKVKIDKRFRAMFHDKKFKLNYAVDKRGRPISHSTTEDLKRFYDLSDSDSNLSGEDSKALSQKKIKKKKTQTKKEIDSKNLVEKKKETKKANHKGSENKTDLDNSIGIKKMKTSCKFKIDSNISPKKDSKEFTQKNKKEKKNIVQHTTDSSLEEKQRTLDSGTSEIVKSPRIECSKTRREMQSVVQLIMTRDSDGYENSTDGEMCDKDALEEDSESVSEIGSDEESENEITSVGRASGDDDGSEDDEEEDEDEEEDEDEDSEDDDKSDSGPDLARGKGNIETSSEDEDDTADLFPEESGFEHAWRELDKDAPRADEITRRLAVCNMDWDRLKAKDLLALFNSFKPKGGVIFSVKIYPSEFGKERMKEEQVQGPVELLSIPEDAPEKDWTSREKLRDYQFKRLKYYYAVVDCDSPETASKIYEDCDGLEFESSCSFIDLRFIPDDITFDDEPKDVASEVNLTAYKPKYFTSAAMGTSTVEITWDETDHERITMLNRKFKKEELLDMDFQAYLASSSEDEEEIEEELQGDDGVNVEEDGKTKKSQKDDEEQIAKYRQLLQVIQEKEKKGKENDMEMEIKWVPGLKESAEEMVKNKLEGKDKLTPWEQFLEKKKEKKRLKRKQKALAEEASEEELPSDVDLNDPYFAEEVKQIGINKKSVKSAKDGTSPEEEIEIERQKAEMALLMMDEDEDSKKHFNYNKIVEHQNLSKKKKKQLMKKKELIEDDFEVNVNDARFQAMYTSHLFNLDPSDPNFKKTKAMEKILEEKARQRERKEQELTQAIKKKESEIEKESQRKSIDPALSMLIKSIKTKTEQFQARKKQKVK
UniProt Q9NP81: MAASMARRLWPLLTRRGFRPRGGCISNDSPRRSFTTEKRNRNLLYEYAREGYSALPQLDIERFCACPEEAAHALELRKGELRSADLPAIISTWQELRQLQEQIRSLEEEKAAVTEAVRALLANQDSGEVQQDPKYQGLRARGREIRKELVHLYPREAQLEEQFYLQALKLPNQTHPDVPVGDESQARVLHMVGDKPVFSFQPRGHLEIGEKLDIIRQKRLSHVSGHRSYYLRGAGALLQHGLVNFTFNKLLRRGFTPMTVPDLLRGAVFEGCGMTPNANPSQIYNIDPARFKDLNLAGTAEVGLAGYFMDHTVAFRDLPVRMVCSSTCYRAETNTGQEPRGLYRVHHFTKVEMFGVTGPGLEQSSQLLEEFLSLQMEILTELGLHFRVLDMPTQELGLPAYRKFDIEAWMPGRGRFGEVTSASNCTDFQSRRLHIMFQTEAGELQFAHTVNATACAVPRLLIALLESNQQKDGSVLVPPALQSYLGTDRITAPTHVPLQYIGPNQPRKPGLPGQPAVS
UniProt P36957: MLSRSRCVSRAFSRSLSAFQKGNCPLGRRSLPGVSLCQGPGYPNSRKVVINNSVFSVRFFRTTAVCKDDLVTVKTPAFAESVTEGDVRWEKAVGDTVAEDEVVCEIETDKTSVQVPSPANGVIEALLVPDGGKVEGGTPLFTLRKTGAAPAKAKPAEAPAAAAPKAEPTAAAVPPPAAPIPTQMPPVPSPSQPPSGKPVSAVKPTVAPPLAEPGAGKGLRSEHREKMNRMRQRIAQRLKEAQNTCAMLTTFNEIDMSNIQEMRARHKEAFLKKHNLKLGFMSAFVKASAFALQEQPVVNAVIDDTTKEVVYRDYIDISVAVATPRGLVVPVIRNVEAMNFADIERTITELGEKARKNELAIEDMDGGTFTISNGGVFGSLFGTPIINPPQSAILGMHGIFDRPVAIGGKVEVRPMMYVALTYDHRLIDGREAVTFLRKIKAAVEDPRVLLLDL
UniProt P62745, whole entry: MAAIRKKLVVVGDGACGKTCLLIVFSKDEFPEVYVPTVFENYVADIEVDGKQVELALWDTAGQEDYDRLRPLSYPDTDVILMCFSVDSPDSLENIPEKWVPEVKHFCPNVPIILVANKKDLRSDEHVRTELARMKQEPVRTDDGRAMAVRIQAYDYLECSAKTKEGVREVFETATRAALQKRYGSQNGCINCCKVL
UniProt Q14690: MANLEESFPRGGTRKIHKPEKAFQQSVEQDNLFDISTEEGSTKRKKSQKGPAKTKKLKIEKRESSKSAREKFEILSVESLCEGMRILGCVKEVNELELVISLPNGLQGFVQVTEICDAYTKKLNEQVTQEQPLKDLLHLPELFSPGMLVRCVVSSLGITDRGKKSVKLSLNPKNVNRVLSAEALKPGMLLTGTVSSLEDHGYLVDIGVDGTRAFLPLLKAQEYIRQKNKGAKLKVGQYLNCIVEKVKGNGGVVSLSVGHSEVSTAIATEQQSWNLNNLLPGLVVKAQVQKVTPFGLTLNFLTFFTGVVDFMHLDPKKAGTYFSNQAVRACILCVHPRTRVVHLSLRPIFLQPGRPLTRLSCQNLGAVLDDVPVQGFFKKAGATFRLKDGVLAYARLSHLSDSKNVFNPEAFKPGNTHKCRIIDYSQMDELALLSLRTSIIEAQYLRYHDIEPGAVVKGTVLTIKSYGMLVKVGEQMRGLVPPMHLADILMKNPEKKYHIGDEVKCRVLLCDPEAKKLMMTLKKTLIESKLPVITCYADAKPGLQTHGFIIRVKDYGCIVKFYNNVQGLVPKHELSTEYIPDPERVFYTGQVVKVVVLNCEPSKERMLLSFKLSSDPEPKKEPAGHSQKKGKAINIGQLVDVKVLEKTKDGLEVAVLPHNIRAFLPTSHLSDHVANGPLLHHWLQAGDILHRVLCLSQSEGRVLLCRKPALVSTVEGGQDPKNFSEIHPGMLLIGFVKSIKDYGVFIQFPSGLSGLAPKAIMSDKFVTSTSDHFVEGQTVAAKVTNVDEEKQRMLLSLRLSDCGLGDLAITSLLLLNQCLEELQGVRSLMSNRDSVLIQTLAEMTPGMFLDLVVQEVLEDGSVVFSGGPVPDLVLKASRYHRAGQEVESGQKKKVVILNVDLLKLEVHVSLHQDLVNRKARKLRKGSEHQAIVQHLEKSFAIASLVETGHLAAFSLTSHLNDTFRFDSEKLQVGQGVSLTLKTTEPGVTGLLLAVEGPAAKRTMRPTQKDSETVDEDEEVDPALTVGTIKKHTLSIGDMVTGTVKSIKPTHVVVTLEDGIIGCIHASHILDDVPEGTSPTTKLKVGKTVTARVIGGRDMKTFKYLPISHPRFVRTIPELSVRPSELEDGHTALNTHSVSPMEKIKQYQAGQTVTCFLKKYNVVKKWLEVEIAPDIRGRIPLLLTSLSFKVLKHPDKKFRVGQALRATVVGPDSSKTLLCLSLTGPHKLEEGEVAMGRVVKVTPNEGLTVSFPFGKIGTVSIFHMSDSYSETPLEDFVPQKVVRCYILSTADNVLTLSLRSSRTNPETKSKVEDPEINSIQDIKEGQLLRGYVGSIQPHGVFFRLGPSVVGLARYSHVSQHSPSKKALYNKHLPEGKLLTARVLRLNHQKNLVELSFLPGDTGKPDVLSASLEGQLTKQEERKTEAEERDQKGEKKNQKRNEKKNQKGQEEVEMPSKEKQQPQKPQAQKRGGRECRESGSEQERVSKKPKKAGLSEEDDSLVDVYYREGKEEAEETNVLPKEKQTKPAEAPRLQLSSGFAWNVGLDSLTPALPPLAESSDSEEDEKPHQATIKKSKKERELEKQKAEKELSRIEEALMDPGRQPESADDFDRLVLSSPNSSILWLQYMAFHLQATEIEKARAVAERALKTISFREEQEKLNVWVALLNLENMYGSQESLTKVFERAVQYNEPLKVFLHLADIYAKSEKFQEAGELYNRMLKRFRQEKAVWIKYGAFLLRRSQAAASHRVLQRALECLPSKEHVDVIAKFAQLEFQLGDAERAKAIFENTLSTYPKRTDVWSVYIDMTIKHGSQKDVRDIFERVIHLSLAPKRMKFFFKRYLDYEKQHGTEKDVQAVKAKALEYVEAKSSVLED
UniProt P13591, whole entry: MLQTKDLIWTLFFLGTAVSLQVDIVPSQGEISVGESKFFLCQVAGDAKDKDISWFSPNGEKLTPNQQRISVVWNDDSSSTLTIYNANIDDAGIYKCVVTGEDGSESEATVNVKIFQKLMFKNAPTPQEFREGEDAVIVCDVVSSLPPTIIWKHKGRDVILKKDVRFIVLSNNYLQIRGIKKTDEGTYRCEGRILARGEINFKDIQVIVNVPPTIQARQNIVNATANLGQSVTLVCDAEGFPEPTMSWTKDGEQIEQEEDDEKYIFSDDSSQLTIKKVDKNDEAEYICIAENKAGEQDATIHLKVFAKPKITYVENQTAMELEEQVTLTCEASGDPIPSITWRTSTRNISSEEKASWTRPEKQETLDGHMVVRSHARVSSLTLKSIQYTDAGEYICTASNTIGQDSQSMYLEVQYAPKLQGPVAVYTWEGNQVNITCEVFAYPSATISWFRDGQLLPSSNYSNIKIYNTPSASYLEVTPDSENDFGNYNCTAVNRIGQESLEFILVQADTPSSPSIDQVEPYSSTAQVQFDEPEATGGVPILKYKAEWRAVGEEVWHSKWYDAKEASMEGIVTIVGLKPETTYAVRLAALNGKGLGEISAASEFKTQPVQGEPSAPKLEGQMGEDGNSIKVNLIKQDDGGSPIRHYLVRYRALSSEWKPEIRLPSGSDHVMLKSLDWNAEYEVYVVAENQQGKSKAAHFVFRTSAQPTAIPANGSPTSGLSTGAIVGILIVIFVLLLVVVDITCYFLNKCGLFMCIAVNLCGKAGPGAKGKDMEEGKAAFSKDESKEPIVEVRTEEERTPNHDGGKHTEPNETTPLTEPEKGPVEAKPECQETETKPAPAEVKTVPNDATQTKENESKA
UniProt O14531, whole entry: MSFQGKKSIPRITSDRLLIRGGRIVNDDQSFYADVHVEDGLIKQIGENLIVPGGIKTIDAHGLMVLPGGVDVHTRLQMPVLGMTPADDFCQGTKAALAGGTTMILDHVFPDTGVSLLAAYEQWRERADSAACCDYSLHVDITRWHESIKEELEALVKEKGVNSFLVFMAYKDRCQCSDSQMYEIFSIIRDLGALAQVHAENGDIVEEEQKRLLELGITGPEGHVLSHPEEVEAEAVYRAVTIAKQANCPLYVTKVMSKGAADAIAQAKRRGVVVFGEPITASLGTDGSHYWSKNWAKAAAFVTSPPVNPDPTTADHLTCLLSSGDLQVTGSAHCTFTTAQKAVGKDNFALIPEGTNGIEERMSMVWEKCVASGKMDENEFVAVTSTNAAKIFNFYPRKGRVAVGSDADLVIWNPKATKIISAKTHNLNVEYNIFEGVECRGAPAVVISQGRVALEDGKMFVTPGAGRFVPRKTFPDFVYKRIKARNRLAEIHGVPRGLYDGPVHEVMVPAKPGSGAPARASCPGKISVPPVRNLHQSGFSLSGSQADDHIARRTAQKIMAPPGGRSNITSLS
UniProt Q96HR3: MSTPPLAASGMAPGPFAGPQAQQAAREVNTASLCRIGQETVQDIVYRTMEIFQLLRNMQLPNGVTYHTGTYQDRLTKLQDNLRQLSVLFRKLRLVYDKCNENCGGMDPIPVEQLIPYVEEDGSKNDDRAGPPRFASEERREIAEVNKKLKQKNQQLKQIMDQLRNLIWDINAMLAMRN
UniProt Q6P1Q0: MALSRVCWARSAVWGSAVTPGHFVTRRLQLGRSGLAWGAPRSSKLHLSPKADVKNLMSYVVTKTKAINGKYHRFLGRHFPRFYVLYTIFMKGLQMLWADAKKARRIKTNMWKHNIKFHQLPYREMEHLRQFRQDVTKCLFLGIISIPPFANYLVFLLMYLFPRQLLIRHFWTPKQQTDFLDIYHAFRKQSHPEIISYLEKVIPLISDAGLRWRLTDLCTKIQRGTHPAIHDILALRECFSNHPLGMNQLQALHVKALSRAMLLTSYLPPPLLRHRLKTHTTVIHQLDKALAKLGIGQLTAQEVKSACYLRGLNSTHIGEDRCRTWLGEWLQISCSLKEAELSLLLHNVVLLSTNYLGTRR

Compound: [O-][N+](C(C1=C(C(O)=C2)NC(C(C=C3)=CC=C3Cl)C4C1C=CC4)=C2Cl)=O
Experiment: melting temperature shift (compound 7 minus DMSO); higher = compound stabilises the protein
Conditions: 10 µM
Description: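 Thermal proteome profiling (TMT mass spectrometry) in intact DAOY medulloblastoma cells or DAOY lysates treated with 10 µM compound 7 or DMSO, heated at 10 temperatures from 40.5 to 73.8 °C for 3 min. Melting curves were fitted with the Bioconductor TPP package, and the melting point difference between compound and vehicle is reported per protein (single curve per condition).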

[1] = system: DAOY cell lysate, treatment time: 20 min, 4 °C
[2] = system: intact DAOY cells, treatment time: 90 min, 37 °C

Target | melting temperature shift [1] [°C] | melting temperature shift [2] [°C]
SEC24A (UniProt O95486) | -0.467 | -0.127
HMG20A (UniProt Q9NP66) | 0.993 | 
UniProt P43361 | 4.09 | 
UniProt P39210 | 0.714 | 3.07
UniProt Q9Y6X4 | -1.32 | 0.81
DNAJC13 (UniProt O75165) | 0.407 | 0.491
UniProt Q9BQ49 | -0.231 | 
UniProt P17677 | -10.8 | 
UniProt O96017 | -0.391 | 
UniProt Q9H0V1 |  | -0.938
ESF1 (UniProt Q9H501) | 0.596 | 
DNAJC2 (UniProt Q99543) | -1.21 | -0.525
TAP2 (UniProt Q03519) | 0.021 | -1.19
SARS2 (UniProt Q9NP81) | -0.333 | -0.814
PRKAG1 (UniProt P54619) | -0.0805 | -0.886
UniProt P22090 |  | -0.728
UniProt Q8IWE5 |  | -3.22
DLST (UniProt P36957) | 3.01 | 
UniProt Q7LC44 | 0.256 | 
LAMP1 (UniProt P11279) | 2.36 | 
CYC1 (UniProt P08574) | 0.975 | 0.439
UniProt Q9UL42 | -1.02 | -0.114
GLCE (UniProt O94923) | 3.99 | 
ARID4B (UniProt Q4LE39) | 1.16 | 
QSER1 (UniProt Q2KHR3) | -0.442 | 

Target | melting temperature shift [1] [°C] | melting temperature shift [2] [°C]
UniProt P42898 | 0.587 | -2.07
RHOB (UniProt P62745) | 2.68 | -4.18
GDAP1 (UniProt Q8TB36) | 2.54 | 2.92
MRPS7 (UniProt Q9Y2R9) | -0.37 | -1.84
YWHAQ (UniProt P27348) | 0.0452 | 0.329
UniProt Q5HYJ3 | 0.637 | 
UniProt Q9H4E5 |  | -2.07
HSPB11 (UniProt Q9Y547) | -1.14 | 1.49
DHX29 (UniProt Q7Z478) | -0.308 | -0.0683
XRCC6 (UniProt P12956) | 0.247 | -0.657
ZNF384 (UniProt Q8TF68) | 1.22 | -0.112
MARK2 (UniProt Q7KZI7) | -1.11 | 0.491
PDCD11 (UniProt Q14690) | 0.7 | 
MAT2A (UniProt P31153) | -0.642 | -2.36
UniProt P13591 | 2.48 | 
RNMT (UniProt O43148) | -0.407 | -0.0448
SMARCA2 (UniProt P51531) | -0.716 | -0.528
UniProt O14531 |  | 1.79
PNISR (UniProt Q8TF01) | 1.62 | -0.278
EEF1A1 (UniProt P68104) | -0.388 | -1.18
AHCYL1 (UniProt O43865) | -0.238 | 0.107
EPHX1 (UniProt P07099) | 2.16 | -0.668
UniProt Q96HR3 |  | 1.03
MAP3K4 (UniProt Q9Y6R4) | -1.19 | -0.737
LETMD1 (UniProt Q6P1Q0) | -0.0359 | 1.94

Exported with tabs: part of the list above.
Target	melting temperature shift [1] [°C]	melting temperature shift [2] [°C]
SMARCA2 (UniProt P51531)	-0.716	-0.528
UniProt O14531		1.79
PNISR (UniProt Q8TF01)	1.62	-0.278

Single values are uncertain, as repeats are few or missing.
